Experimental findings from article PMC7819943, “Rice protein-binding microarrays: a tool to detect cis-acting elements near promoter regions in rice” are described below.

The list shows a part of the results.

The target in the assay is T1, OsSMF1 (Oryza sativa, UniProt Q6ZLB0 1-436).
T1 sequence: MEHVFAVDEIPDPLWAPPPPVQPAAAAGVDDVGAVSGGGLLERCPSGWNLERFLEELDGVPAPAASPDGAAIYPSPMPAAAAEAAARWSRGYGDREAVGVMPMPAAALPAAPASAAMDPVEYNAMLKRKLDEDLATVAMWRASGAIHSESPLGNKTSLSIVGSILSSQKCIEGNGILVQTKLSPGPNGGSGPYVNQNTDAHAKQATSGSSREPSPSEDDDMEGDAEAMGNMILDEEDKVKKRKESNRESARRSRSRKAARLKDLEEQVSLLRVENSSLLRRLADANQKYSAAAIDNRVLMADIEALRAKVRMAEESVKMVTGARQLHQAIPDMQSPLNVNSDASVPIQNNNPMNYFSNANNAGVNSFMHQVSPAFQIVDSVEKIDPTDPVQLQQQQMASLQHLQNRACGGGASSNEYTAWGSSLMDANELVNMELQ
The experiment in a line: protein-binding microarray (RPBM); PBS, 2% BSA, 51.3 ng/ul salmon testes DNA, 50 uM zinc acetate, 200 nM TF, 25 C, 1 h; high values mean tight binding. Conditions: protein: recombinant; tags: N-terminal polyhistidine and DsRed monomer fusion (pET32a); chain copies: 2; label: CyDye5-dUTP incorporated in the synthesized complementary strand; 3' TTTTT single-stranded linker to array surface; dsDNA, one strand shown. The method in brief: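 Transcription factors, each fused N-terminally to a polyhistidine tag and DsRed, were expressed in E. coli BL21-CodonPlus and purified on Ni–NTA. A custom Agilent array was made double-stranded by primer extension with Cy5-dUTP and blocked with 2% BSA. It was incubated with 200 nM protein in PBS, 2% BSA, salmon testes DNA and 50 µM zinc acetate at 25 °C for 1 h, then washed. The binding signal is per-feature fluorescence intensity (arbitrary units) read on an Axon 4000B scanner.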
Regarding “TATATACTCAAATAGAATCATGATACGTCACATACCTACCCGGAGTCACCTAGTGCAG”, the binding signal was 3720 fluorescence intensity (a.u.).

Turning to “CTCTGTGCTGAAATGGTTAGGTATGTTTTCTTTCTGCTCTCGGAGTCACCTAGTGCAG”, the binding signal is 40700 fluorescence intensity (a.u.).

Consider “ACAGAGGGAGGCGAATTTAACCCTAGCTAGCGTGTTCCCCCGGAGTCACCTAGTGCAG”, for which the binding signal was 28500 fluorescence intensity (a.u.).

“CACGTAGAATCCACATATGGTGACATGGGATCCACGTGGCCGGAGTCACCTAGTGCAG”: the binding signal is 19500 fluorescence intensity (a.u.).

Take “AGTATATCCTAAAGCGACACTTTACAGTCTCAAGGACATCCGGAGTCACCTAGTGCAG”: the binding signal is 11200 fluorescence intensity (a.u.).

Regarding “AAGTCTTCTTTCATCTCACCACGTCACTTTTGGTCCATAGCGGAGTCACCTAGTGCAG”, the binding signal is 9260 fluorescence intensity (a.u.).

As to “ATCGGCTTATGAAAACGTTGAATCGAGCGTGCTCAACTGGCGGAGTCACCTAGTGCAG”, the binding signal is 3190 fluorescence intensity (a.u.).

With “TCTTCTGAGTTCTTGTGTTTTCATACGTGCCAATCAAATGCGGAGTCACCTAGTGCAG”, the binding signal was 4130 fluorescence intensity (a.u.).

“TTTGACGTCGATAGAGTGGTTATGCGTTATCAGTTTGCATCGGAGTCACCTAGTGCAG”: the binding signal was 4000 fluorescence intensity (a.u.).

“CGCGCCGTCGTCCAGCCACCGTCACGCCGCGCGGGGCGCCCGGAGTCACCTAGTGCAG”: the binding signal is 3830 fluorescence intensity (a.u.).

Regarding “CCTTTCCTCCTTGTTACGTGGAGGGCCACACGCTCTGCAGCGGAGTCACCTAGTGCAG”, the binding signal was 5750 fluorescence intensity (a.u.).

With “TCCCTCTTCCTCAAGCGCATCACCGTCACCGACGACGACCCGGAGTCACCTAGTGCAG”, the binding signal is 3800 fluorescence intensity (a.u.).

For the sequence “GCATGAGGGTGTAGACGTGGAACGCCTTGCCGATCTTGCGCGGAGTCACCTAGTGCAG”, the binding signal is 4750 fluorescence intensity (a.u.).

Turning to “AAGAAGGAGAGGGGAGGGGCTGACGGGTGGGATCACGTCGCGGAGTCACCTAGTGCAG”, the binding signal is 4600 fluorescence intensity (a.u.).

On to “TGGACCATGTGATTGTCAATGACAATGACCCATCATTGATCGGAGTCACCTAGTGCAG”, for which the binding signal was 3220 fluorescence intensity (a.u.).

Take “TTAACAGTGAGCTTGCGTGATGTCAGGTCAAATCGGGGAGCGGAGTCACCTAGTGCAG”: the binding signal was 3900 fluorescence intensity (a.u.).

“CCATCGAATCCGGTTCGCGCGCAAGCAAAATCAGCAGCGTCGGAGTCACCTAGTGCAG”: the binding signal was 3830 fluorescence intensity (a.u.).

Take “GCCGGCGAGGCTGCTGCCGGCAACGTCGATGACGAAGCGGCGGAGTCACCTAGTGCAG”: the binding signal is 4780 fluorescence intensity (a.u.).

Turning to “CAGCCATATGATTAGTGCTCCGTATTACTTAGAATCAAGCCGGAGTCACCTAGTGCAG”, the binding signal was 21700 fluorescence intensity (a.u.).

As to “TTTCCTGCGCACGCAAAACATAGCGACGTATTTTCTTAAGCGGAGTCACCTAGTGCAG”, the binding signal was 3480 fluorescence intensity (a.u.).

As to “GAAACGCTTGCCTGGACGTGGACGGAGCCGAGGACACATGCGGAGTCACCTAGTGCAG”, the binding signal was 34000 fluorescence intensity (a.u.).

On to “TCGCCCTCGCCGCCGACGAGCTCGCCGCCGCGTTCCCGACCGGAGTCACCTAGTGCAG”, for which the binding signal was 3540 fluorescence intensity (a.u.).

For the sequence “CCATTCCCAAAAGCAAAGCGAACCTAAGCTCGCTTCGTCTCGGAGTCACCTAGTGCAG”, the binding signal was 21000 fluorescence intensity (a.u.).

As for “ACAGTGCATGCATAAATTAAAACACCATACCAATTACTCCCGGAGTCACCTAGTGCAG”, the binding signal is 28100 fluorescence intensity (a.u.).

Take “GGCCGGTGACATGATGTGTATATGTGTAGCCGCTGCCGCTCGGAGTCACCTAGTGCAG”: the binding signal is 7290 fluorescence intensity (a.u.).

With “GCAAACATGTGTTAAGACTTAACAGGTGGAAGTAACCGACCGGAGTCACCTAGTGCAG”, the binding signal is 3230 fluorescence intensity (a.u.).

For “CGATGATTCTTCAATTAATTACACAGCTCTAGTGTGTAAACGGAGTCACCTAGTGCAG”, the binding signal was 22700 fluorescence intensity (a.u.).

On to “ATTACAGTGTGCTTACATGTCATATCAACCTAATATGCACCGGAGTCACCTAGTGCAG”, for which the binding signal is 5340 fluorescence intensity (a.u.).

For “CGCAGCCATTACCGGCTAGCGGCCACGTGGCGCGAGCGATCGGAGTCACCTAGTGCAG”, the binding signal was 22300 fluorescence intensity (a.u.).

As for “AGTTTCACCATGCCTATTTAAATGGCTTCTTCTCTTTCCACGGAGTCACCTAGTGCAG”, the binding signal is 3360 fluorescence intensity (a.u.).

Consider “AAGCTAGTACAAGATGCGAAATGTCGTCAGATTCAGAGATCGGAGTCACCTAGTGCAG”, for which the binding signal is 3580 fluorescence intensity (a.u.).

With “CTCACTTCTCTCACCTCCCTATCAAATGCCAACTCAGCAACGGAGTCACCTAGTGCAG”, the binding signal is 6360 fluorescence intensity (a.u.).

For “ATCTACGCGACGTGGTACCCTGTGGGAGGTGTGCGTGGTACGGAGTCACCTAGTGCAG”, the binding signal was 4800 fluorescence intensity (a.u.).

For “CGACGATATCATCCATCTCACCCGTCGTCACCGCCTCGGCCGGAGTCACCTAGTGCAG”, the binding signal was 3260 fluorescence intensity (a.u.).

In the case of “CACTCCTGCTCGACTCCTTGGTGACGTTTCTGTTTCTGTTCGGAGTCACCTAGTGCAG”, the binding signal is 6370 fluorescence intensity (a.u.).

As for “TGAATAAAAGTGTGGACCCCACATGTCAGTGACTCATTAACGGAGTCACCTAGTGCAG”, the binding signal was 4590 fluorescence intensity (a.u.).

For “TTAAAGACCGTCTTCATTCCTAGGAAAATACCATCAATCACGGAGTCACCTAGTGCAG”, the binding signal was 4580 fluorescence intensity (a.u.).

On to “TTTTGCCACATCAGATAACACATGTAACTCCACTAGATCCCGGAGTCACCTAGTGCAG”, for which the binding signal was 13000 fluorescence intensity (a.u.).

Consider “AAACTTCTGAAATGGTTTCTGCAACAAGCTGACATGTACCCGGAGTCACCTAGTGCAG”, for which the binding signal was 5710 fluorescence intensity (a.u.).

Regarding “TCCGCCGTCGCCGCTCCGTCCATCGCCCGCCGTCACCGCCCGGAGTCACCTAGTGCAG”, the binding signal was 4040 fluorescence intensity (a.u.).

For the sequence “CCATGCATCCCATCAAACCGGAAACAGATCCTCTGACGTGCGGAGTCACCTAGTGCAG”, the binding signal was 3630 fluorescence intensity (a.u.).

In the case of “TCCCCTCGCGGCGAACGCGCGCGCGCAACGAGAAGCCAAGCGGAGTCACCTAGTGCAG”, the binding signal is 3200 fluorescence intensity (a.u.).

For “GCAAACACGCACCCTCCCAACAGACGCCTCCTCCCCTCCCCGGAGTCACCTAGTGCAG”, the binding signal was 28400 fluorescence intensity (a.u.).

In the case of “CGGTGAAACAACCACCGAGTTGATCTACTGAAATGTAGTGCGGAGTCACCTAGTGCAG”, the binding signal was 3750 fluorescence intensity (a.u.).

Regarding “TTTTATAAATTCGAGCGTGTGCGGGTTTCGTTTTCTCACTCGGAGTCACCTAGTGCAG”, the binding signal is 3290 fluorescence intensity (a.u.).

“GCCTCCAAATAATTCGTTCTCGTGTAGTCGTCAGCTACGTCGGAGTCACCTAGTGCAG”: the binding signal was 5350 fluorescence intensity (a.u.).

For “CGAACCGTCGCGCCACACGTGGCCCACCACAACCACTAACCGGAGTCACCTAGTGCAG”, the binding signal is 6630 fluorescence intensity (a.u.).

Turning to “AAATTCCACGTGCCACATATTTCGTTCATTTGAGTTTATTCGGAGTCACCTAGTGCAG”, the binding signal is 8820 fluorescence intensity (a.u.).

Take “CCACATTAATACGCATGGAATTACACGTGTACGAGTAGGCCGGAGTCACCTAGTGCAG”: the binding signal is 10200 fluorescence intensity (a.u.).

As for “AAAGCTACGAGTTGTACGTGGCCTAAAAGGCTCAACTATCCGGAGTCACCTAGTGCAG”, the binding signal is 3190 fluorescence intensity (a.u.).

“CTACTATACCACAGTATATTATCTTTTGGGGTTTGAAAGTCGGAGTCACCTAGTGCAG”: the binding signal was 16900 fluorescence intensity (a.u.).

With “TCCTCCCCAACATACTAGGAAGGAGCTTTGGTTTGGTTCGCGGAGTCACCTAGTGCAG”, the binding signal is 9120 fluorescence intensity (a.u.).

For “GCATGACTCGGTCGGGTGGCTAGTGTGGATCTAGATCTGGCGGAGTCACCTAGTGCAG”, the binding signal was 29400 fluorescence intensity (a.u.).

On to “TCCAAATGAGTCAAATTTAAGATCTGCGGAGGCACCTTCCCGGAGTCACCTAGTGCAG”, for which the binding signal is 3480 fluorescence intensity (a.u.).
